# Measured values reported in patent US5179196A, “Purification of proteins employing CTAP-III fusions” (SRI International, priority 1989, dated 1993).
# Not every detail of the peptide structures is certain; ends, links or a residue may be inferred. No end group written: not given here.
# Tested on: B16/F10 cells (murine melanoma)
# Test: Cell adhesion assay, tumor cells binding to peptide-coated wells
# Format: cell-based
# Text: One of the assays used to measure the activity of the laminin B1 peptide measures the binding of tumor cells containing the laminin receptor to the peptide immobilized on the surface of a culture tissue (Graf et al (1987) Cell 48:989-996). This assay is a convenient and sensitive method for routine measurement of laminin cell receptor binding and therefore a good indicator of laminin antagonist activity.
# The laminin B1 -40 peptide, along with the previously described YIGSR and CDPGYIGSR peptides, were dissolved in phosphate-buffered saline (PBS) and were coated onto Falcon #3915 polystyrene 96-well plates at 37° C. for 60 min. The peptide solutions were removed, and the wells were washed twice with PBS. Non-specific cell binding was prevented by adding 200 ul 0.1% bovine serum albumin (BSA) (Sigma #4965) in PBS to the wells and incubating for 60 min at 37° C. The BSA was removed by washing twice with PBS. B16/F10 cells (murine melanoma) in log phase growth were harvested after 2 min exposure to 0.05% trypsin/0.1% EDTA in PBS, suspended in growth medium (DMEM +10% FBS), centrifuged, and resuspended in binding medium (DMEM+20 mM HEPES+0.1% BSA). 100 ul of cells (3-4×10^4 cells) were added to each well and incubated for 60 min at 37° C. Non-adherent cells were removed by rapid rotation of the plate, addition of PBS, aspiration of all but 50 ul of the contents of the wells; the washing procedure was repeated two more times. After the final wash, the entire solution was slowly aspirated, and the cells were fixed by the addition of 100 ul methanol for 15 min. The methanol was removed and the cells were air-dried before staining for 5 min with 100 ul 0.1% crystal violet solution. The stain was removed and the wells were washed with 200 ul H2 O and air dried. The cells were solubilized by adding 100 ul of 2% deoxycholic acid and heating gently in a microwave oven. The optical density of the solutions was read on a Molecular Devices Corporation plate reader at a wavelength between 590 nm and 405 nm. Extrapolation of optical density to number of cells bound was done by comparison of readings to a standard curve obtained by incubating various numbers of cells in microtiter plate wells for 5 h (to allow firm attachment but no significant dividing), and washing and staining as described above.
# [1] = 0.02 ug/ml peptide used to coat the wells
# [2] = 0.20 ug/ml peptide used to coat the wells
# [3] = 2.00 ug/ml peptide used to coat the wells
Substance,Relative Number of Bound Cells [1],Relative Number of Bound Cells [2],Relative Number of Bound Cells [3]
CDPGYIGSR [CDPGYIGSR],0.2,0.3,0.45
YIGSR [YIGSR],0.15,0.1,0.1
